{"source": "paper PMC7036364", "molecular_target": "T1, GST-StMbp1 (Setosphaeria turcica 01-23) (UniProt R0KRN6)", "T1 sequence (looked up)": "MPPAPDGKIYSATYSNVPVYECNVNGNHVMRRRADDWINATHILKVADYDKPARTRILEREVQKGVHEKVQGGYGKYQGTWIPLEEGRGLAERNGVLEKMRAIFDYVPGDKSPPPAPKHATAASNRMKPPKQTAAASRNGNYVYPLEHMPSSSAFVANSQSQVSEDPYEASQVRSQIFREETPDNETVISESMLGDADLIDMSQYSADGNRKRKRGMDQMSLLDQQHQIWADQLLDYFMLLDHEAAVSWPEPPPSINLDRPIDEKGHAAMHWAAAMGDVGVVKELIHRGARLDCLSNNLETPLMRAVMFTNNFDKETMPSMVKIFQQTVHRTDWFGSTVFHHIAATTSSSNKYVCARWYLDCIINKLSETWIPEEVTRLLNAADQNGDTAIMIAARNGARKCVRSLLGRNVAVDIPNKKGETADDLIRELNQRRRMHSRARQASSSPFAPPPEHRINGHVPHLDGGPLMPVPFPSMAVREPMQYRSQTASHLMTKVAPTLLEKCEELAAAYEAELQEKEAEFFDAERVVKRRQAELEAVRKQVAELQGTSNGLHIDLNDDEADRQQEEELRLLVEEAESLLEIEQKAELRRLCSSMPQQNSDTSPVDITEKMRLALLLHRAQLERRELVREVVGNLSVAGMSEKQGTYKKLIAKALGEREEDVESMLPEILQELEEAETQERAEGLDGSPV", "assay": "EMSA", "conditions": "0.5 ug DNA in 20 ul, 1% agarose, increasing GST-StMbp1; 50 mM Tris-HCl pH 7.8, 50 mM NaCl, 1 mM EDTA, 0.05% NP-40, 2.5% glycerol, 25 C, 15 min; 1% agarose gel; recombinant protein; residues 1-691; protein details: N-terminal GST (pGEX-6P-3); label: none (ethidium bromide stain)", "note": "Tags and fusion partners may be left off the protein sequences shown."}
{"sequence": "AAGATGCTGTAATTGATAGCAAAACACACGGACGCGACGTCTATCCACCCCGGCTTATGGGAGGGGATCCGAGCCACTAGGCCCGAAGTTGAGACAGCGCCTTCGCTTTCCAGGTCCCCACGTCTCATGTTTCCTATCACCCGCAACGCATTGGCTGCATTTCTCAGCCGCTGGGCTCCACGTCTAGCGCGCCATCTATCAATAGGCATAGGAGCTTACTCGGACACACAGCCGGCATCTGCACGCCATCAACCCTCGCAATCATGGCTGGACTATCCAGGAAGGGAAGTGGTCCGCGGTCCACACTTGAGCTCACGTCAATATGCCTCTGCAGTACACTCGCTCCGCAATACATGGATTGTAACAGATCCGGCACGCACTGTGCTTGTCATCGCGCGATCCACGCCCTGACCACCTTCTTGACATCTCACGCCTATCATTGCCGCCTGGACGCATACATATACCAGCACCTCCAAGCCCTAAACTTTTCATTATCCCAT (double strand) [StPKS promoter fragment (-738 to -238)]", "values": [{"measurement": "binding result", "result": "binds"}]}
